Source: PubChem BioAssay AID1508597 (Cure First, 2020)
This is an unselected part of the about 2,100 reagents, under one of the conditions tested. 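Calls flag viability under 80% in either arm, not effects specific to rucaparib; the reference for percent is not stated.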 Some reagents were tested in more than one well and are listed for each. Not given: the 100% reference.

- Screen: 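Knock-downs altering ovarian cancer cell survival with or without PARP inhibitor rucaparib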 (primary screen)
- System: human ovarian carcinoma lines grown from tumours: OCI-P5x (papillary serous) and OCI-C5x (clear cell)
- Reagents: siRNA pool against human genes, 1.25 pmol siRNA per well
- Time to read-out: 72 h or 96 h, depending on the cell culture
- Treatment: rucaparib 20 µM (about IC30) or vehicle, present until read-out
- Rucaparib or vehicle: Rucaparib
- Cell line: OCI-P5x (serous)
- Read-out: 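ATP luminescence measured at 72 or 96 h according to the culture, then normalised and expressed as percent viability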
- Direction: viability, normalised: higher = more viable cells remaining
- Rule for the call: 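a well counts as a hit if its normalised viability is under 80 percent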
- Calls: active = viability under 80%; inactive = viability 80% or more

SMUG1, technical replicate 1 scored viability, normalised (%) = 86.1; inactive.
For SMUG1, technical replicate 2, the values are viability, normalised (%) = 84.2; inactive.
SMUG1, technical replicate 3 showed viability, normalised (%) = 97.2; inactive.
For MAU2, technical replicate 1, the values are viability, normalised (%) = 78.8; active.
With MAU2, technical replicate 2, the entry reads viability, normalised (%) = 77.4; active.
MAU2, technical replicate 3 showed viability, normalised (%) = 76.9; active.
With MVK, technical replicate 1, the values are viability, normalised (%) = 98.7; inactive.
MVK, technical replicate 2 scored viability, normalised (%) = 105; inactive.
With MVK, technical replicate 3, the entry reads viability, normalised (%) = 84.4; inactive.
BAP1, technical replicate 1 scored viability, normalised (%) = 56.9; active.
BAP1, technical replicate 1 scored viability, normalised (%) = 91.9; inactive.
BAP1, technical replicate 2 showed viability, normalised (%) = 110; inactive.
For BAP1, technical replicate 2 the deposit lists viability, normalised (%) = 69.6; active.
With BAP1, technical replicate 3, the entry reads viability, normalised (%) = 79.5; active.
BAP1, technical replicate 3 showed viability, normalised (%) = 99.6; inactive.

In a second layout: 2 of the entries above
gene symbol,technical replicate,"viability, normalised (%)",activity call
SMUG1,2,84.2,inactive
SMUG1,3,97.2,inactive
